These are yes or no findings as the source states them, for the method shown. Some results given as binding are weak or reduced against the parent protein; the word gives no strength.
Columns and labels:
[1] = target: recombinant TAFV glycoprotein (TAFV (Tai Forest virus)) (UniProt Q66810); experiment: ELISA, GP coated
[2] = target: TAFV glycoprotein expressed in 293T cells (TAFV (Tai Forest virus)) (UniProt Q66810); experiment: IP from lysates of GP-expressing 293T cells
[3] = target: recombinant TAFV glycoprotein (TAFV (Tai Forest virus)) (UniProt Q66810); experiment: ELISA dose response, GP coated

Amino acid sequences for entries named in this document (tags omitted). A change or cut given only in a name is not applied to a line headed by its entry. Residues count along the entry.
UniProt Q66810: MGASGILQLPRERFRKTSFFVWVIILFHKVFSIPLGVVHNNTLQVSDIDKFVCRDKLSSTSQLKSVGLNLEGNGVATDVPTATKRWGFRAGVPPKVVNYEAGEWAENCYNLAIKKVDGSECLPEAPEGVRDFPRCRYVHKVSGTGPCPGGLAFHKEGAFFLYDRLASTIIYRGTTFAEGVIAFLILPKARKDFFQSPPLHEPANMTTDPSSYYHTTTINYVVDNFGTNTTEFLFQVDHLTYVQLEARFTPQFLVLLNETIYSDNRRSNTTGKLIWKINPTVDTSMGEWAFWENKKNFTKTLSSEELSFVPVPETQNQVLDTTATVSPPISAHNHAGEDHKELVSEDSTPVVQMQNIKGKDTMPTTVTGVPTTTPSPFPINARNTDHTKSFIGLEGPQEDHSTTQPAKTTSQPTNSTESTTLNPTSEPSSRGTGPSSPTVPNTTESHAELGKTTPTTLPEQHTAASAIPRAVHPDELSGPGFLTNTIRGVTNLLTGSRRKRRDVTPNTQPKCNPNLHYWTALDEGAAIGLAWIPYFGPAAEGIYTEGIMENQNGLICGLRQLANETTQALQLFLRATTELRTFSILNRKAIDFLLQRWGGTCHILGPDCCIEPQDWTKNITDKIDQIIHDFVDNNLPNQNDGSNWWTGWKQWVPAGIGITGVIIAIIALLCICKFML
TAFV glycoprotein expressed in 293T cells (TAFV (Tai Forest virus)): residues 33-676 of Q66810
recombinant TAFV glycoprotein (TAFV (Tai Forest virus)): residues 33-650 of Q66810

Measured: binding

B1: EbovGPscFv4-2 (scFv)
scFv: MAWSHPQFEKTGSGGAELVKSGASVKLSCTASGFNIKDDYMHWVKQRPEQGLEWIGWIDPENGDTEYASKFQGKATITADTSSNTAYLQLSSLTSEDTAVYYCTTYYYGSAWFAYWGQGTLVTVSAGGGGSGGGGSGGGGSGGGGSASLSVSVGETVTITCRASGNIHNYLAWYQQKQGKSPQLLVYNAKTLADGVPSRFSGSGSGTQYSLKINNLQPEDFGSYYCQHFWSTPYTFGGGTKLEIKRADAAPTVSIFPPSSEQLTSGGASVVCFLNNFTHCQELQQDECS
binds: [1] | [2] | [3]

From US20230212268A1 (UNM RAINFOREST INNOVATIONS, published 2023)
